# Assay: general procedure: peptide synthesis; CCBT, N-methylmorpholine
# Conditions: late stage modification step, hydrochloride
Substance,step yield (run 1) [%],step yield (run 2) [%],step yield (run 3) [%],step yield (run 4) [%]
3-(3-n-butylaminopropylamino)propylamino-N-methylbleomycin,51,85,,
3-[(S)-1'-phenylethylamino]propylamino-N-methylbleomycin,65,8.2,92,96
